These are yes or no findings as the source states them, for the method shown. In cells and extracts the contact can be indirect. Some results given as binding are weak or reduced against the parent protein; the word gives no strength.

Protein sequences, listed by entry. Tags and fused reporters are not part of them. Lines headed by an entry give the natural chain unless they say otherwise; changes in a name come on top. Chains listed by the source or under a name are the forms on record and can include a tag or linker.
UniProt P13569: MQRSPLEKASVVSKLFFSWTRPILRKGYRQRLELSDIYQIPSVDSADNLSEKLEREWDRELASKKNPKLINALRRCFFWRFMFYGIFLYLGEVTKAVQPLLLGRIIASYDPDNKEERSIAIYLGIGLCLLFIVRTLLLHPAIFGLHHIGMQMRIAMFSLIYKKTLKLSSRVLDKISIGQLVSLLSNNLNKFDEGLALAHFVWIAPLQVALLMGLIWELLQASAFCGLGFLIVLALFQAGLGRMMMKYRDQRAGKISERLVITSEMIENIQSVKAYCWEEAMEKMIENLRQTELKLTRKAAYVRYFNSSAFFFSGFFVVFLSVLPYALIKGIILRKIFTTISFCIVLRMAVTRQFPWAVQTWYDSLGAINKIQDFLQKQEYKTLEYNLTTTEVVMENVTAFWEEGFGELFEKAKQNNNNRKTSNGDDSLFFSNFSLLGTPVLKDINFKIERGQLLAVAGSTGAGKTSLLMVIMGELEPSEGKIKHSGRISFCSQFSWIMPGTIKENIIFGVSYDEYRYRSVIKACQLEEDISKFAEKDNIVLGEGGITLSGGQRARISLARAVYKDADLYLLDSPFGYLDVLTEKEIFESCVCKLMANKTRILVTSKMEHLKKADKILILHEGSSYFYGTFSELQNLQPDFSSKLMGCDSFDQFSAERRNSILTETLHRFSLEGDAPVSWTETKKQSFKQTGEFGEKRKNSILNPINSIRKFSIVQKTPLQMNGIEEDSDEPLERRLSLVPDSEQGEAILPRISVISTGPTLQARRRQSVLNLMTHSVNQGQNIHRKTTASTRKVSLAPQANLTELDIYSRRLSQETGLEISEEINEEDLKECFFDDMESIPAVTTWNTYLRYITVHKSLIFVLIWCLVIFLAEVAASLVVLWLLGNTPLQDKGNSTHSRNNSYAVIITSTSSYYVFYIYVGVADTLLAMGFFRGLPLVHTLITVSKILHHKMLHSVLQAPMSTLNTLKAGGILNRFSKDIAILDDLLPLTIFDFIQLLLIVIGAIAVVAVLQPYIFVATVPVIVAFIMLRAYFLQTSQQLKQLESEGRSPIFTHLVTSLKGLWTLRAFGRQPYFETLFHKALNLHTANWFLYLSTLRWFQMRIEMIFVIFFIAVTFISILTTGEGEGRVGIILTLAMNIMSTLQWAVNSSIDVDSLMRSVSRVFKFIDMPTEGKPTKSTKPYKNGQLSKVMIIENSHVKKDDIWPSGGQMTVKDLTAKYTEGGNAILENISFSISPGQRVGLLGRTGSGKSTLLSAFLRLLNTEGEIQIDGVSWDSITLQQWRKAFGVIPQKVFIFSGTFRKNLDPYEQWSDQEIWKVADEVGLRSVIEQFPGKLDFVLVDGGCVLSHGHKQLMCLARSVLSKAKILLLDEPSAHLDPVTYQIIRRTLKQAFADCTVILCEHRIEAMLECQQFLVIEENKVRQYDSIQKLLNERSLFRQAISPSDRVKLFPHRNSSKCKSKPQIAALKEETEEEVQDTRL
mCherry-Flag-F508del-CFTR, rescued to the plasma membrane with VX-661 (P13569, form named): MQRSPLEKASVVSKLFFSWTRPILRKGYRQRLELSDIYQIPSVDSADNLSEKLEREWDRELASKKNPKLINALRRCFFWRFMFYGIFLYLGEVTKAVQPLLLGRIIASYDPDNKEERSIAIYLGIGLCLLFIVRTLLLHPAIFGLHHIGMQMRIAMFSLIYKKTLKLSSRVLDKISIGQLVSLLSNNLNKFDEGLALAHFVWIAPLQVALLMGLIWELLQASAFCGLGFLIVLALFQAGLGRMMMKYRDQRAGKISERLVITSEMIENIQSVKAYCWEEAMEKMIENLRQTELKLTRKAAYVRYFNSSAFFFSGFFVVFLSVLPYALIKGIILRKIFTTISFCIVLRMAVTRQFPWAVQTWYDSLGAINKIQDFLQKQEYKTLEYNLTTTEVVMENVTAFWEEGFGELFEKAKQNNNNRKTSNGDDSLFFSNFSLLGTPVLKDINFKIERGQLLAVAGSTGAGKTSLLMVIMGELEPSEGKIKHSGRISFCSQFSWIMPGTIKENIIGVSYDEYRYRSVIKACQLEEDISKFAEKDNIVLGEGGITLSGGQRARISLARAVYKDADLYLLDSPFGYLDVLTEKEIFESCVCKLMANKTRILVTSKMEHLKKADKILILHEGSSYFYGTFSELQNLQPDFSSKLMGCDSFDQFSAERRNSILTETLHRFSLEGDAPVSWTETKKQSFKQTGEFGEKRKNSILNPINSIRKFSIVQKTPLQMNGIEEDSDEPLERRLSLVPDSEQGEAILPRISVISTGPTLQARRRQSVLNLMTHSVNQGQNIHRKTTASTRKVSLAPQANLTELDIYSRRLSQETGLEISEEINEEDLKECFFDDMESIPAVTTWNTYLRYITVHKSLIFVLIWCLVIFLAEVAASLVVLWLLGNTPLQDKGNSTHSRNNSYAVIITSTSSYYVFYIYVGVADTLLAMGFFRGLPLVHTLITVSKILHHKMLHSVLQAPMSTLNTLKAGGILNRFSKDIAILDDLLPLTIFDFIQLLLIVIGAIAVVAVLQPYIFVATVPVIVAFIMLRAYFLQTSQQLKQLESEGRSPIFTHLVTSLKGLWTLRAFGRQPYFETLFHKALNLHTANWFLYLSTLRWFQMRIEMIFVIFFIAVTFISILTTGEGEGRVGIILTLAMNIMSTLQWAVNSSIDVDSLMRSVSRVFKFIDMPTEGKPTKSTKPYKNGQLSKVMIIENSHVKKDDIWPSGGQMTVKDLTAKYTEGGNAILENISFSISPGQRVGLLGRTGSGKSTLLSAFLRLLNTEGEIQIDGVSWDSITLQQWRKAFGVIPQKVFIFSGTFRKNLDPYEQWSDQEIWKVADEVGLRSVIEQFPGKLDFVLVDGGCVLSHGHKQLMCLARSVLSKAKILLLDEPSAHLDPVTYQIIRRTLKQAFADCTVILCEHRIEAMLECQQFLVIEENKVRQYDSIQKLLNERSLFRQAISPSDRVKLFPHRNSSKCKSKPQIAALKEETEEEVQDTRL
UniProt P46937: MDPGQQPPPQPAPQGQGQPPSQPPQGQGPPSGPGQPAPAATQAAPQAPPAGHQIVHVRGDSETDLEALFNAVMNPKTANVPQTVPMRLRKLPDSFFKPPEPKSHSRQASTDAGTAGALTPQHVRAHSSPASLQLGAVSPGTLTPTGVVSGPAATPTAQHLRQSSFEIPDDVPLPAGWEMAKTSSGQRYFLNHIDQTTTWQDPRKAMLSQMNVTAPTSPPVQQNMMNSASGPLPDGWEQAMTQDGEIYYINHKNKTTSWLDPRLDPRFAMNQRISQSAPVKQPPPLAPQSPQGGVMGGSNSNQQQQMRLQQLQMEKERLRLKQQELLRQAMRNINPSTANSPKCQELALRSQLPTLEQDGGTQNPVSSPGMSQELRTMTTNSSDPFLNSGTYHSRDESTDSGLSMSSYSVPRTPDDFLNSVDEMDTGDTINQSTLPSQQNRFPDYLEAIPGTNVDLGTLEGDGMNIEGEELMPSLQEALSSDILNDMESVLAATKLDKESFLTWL
UniProt P07947: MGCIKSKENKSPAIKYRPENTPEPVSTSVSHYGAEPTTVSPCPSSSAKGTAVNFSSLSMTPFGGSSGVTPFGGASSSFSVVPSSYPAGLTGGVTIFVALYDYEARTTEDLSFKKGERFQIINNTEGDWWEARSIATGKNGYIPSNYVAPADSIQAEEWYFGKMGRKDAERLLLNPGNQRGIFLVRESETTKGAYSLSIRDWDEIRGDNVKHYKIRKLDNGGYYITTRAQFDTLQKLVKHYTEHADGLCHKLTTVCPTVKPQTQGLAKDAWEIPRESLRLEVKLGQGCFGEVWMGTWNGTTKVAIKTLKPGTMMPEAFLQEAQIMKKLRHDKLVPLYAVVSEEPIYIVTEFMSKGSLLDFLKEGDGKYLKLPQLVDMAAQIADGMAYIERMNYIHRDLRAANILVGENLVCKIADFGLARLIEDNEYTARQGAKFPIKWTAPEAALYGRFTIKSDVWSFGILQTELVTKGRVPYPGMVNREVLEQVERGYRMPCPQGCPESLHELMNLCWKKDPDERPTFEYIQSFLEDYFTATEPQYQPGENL

For test [1], the target named is mCherry-Flag-F508del-CFTR, rescued to the plasma membrane with VX-661 (UniProt P13569). The test can be described thus: co-IP; intact CFBE cells labelled on ice 2 h with anti-Flag M2 (or non-specific IgG) in PBS-CM, then non-denaturing lysis (1% NP-40, 0.01% SDS, 100 mM NaCl); CFTR complexes from the plasma membrane captured on protein G magnetic beads, washed with 200 mM NaCl, 1% NP-40; Western blot; inputs adjusted to equal precipitated wt- and rF508del-CFTR. A general note: In western blotting, separated proteins are transferred to a membrane and probed.

For the next test, the target named is mCherry-Flag-wt-CFTR (UniProt P13569). Described as above.

Turning to “YES-associated protein 1 (YAP1) (from UniProt P46937 1-504)”, the binding entry is recorded as “binds” in test [1] and “no binding” with mCherry-Flag-wt-CFTR.
Take “Yamaguchi sarcoma viral oncogene homolog 1 (YES1) (from UniProt P07947 1-543) (enzyme)”: the binding result with mCherry-Flag-wt-CFTR was “no binding”.
